# Experimental data from PubChem BioAssay AID504847 (National Center for Advancing Translational Sciences (NCATS), 2011).
# Sequences of proteins named here, by UniProt entry; tags and fusion partners are left off.
# UniProt P11473, whole entry, looked up: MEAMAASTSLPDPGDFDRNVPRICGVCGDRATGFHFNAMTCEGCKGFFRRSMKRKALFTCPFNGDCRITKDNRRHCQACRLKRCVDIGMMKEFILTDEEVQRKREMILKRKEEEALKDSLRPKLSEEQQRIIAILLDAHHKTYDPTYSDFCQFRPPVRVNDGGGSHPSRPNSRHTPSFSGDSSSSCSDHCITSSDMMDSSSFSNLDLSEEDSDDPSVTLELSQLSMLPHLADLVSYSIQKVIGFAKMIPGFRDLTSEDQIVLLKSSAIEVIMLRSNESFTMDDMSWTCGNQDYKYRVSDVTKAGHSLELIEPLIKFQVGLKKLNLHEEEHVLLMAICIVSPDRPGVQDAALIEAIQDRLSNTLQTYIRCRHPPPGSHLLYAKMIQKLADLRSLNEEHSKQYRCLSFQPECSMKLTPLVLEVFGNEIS
# The whole screen tested about 400,000 compounds, of which about 3,700 (0.93%) were called active. The inconclusive results got no clear call from the source; some entries with a clear call stand among them for comparison. The call rests on the fitted dose curve; in most records, active means well fitted inhibition curve with a large enough effect; inconclusive means small, poorly fitted or top-dose-only effect, or another doubt; inactive means no such curve, though single readings can be large or run the other way. Potencies beside an inconclusive call are fits to weak or partial responses and may not hold up.
# Target: Vitamin D3 receptor (Homo sapiens) (UniProt P11473)
# Test: Inhibitors of the vitamin D receptor (VDR): qHTS
# Details: VDR-SRC2-3 peptide fluorescence polarization, 2 h; max response, negative = inhibition: hits give low values
# Outline: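 Inhibition of the VDR/SRC2-3 peptide interaction is quantified by fluorescence polarization. Compounds (23 nl, pintool) incubate with the reagents for 2 hours at ambient room temperature.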
# On the % scale 0 is the no-effect control and ±100 the full control effect; potency means the concentration at half of the fitted maximal effect.
Structure (SMILES),Potency,"max response, negative = inhibition"
Cc1ccc(C(=O)C2=C(O)C(=O)N(Cc3cccnc3)C2c2cccc(Oc3ccccc3)c2)o1 (configuration not stated),"inconclusive: 56.2 µM [inhibitor, partial curve, poor fit]",
O=C(O)c1cccc(S(=O)(=O)Nc2ccc3oc(=O)sc3c2)c1,active: 89.1 µM,
CCNc1nc(NCC)n2c(SCC(=O)c3ccc(C(C)C)cc3)nnc2n1,"inconclusive: 56.2 µM [inhibitor, partial curve, poor fit]",
CCCCCCCCCCCCCCCCCCc1ccc(C(=O)/C=C/C(=O)O)cc1,"inconclusive: 3.55 µM [inhibitor, full curve, poor fit]",
Cc1cc(C)c2c(c1)c(C)cc1nnc(SCC(=O)c3ccccc3)n12,,inactive: 10.4%
Cc1ccc(S(=O)(=O)NC(=O)c2cc(C)n(-c3ccc(N(C)C)cc3)c2C)cc1,"inconclusive: 56.2 µM [inhibitor, partial curve, poor fit]",
O=C(O)c1ccc(-c2sc(Nc3ccccc3)n[n+]2-c2ccccc2)cc1,,inactive: 4.57%
CCC(C)C(NC(=O)OC(C)(C)C)C(=O)NC1COC2CC(n3ccc(=O)[nH]c3=O)OC12 (configuration not stated),,inactive: 9.26%
O=C1/C(=C/c2cccc(Br)c2)SC(=S)N1CCC(=O)N(CCO)c1ccccc1,"inconclusive: 79.4 µM [inhibitor, partial curve, poor fit]",
Cc1cccc(OCC(=O)Nc2cccc(C(=O)NCC(C)C)c2)c1,,inactive: -18.6%
c1ccc(CN2CCC(N=C3NN=C(c4ccc5c(c4)OCCO5)CS3)CC2)cc1,"inconclusive: 89.1 µM [inhibitor, single point]",
Oc1cc(NCc2ccc(F)cc2)cc2cccnc12,,inactive: -5.64%
S=C(NCC1CCCO1)c1ccc(Br)cc1 (configuration not stated),"inconclusive: 89.1 µM [inhibitor, single point]",
COc1ccccc1CNC(=O)CSc1ncc(S(=O)(=O)c2ccc(C)c(Cl)c2)c(=O)[nH]1,,inactive: 6.65%
Oc1ccc(Br)cc1C1C=C(c2ccc3c(c2)OCO3)NC(c2ccc(Br)cc2)N1 (configuration not stated),"inconclusive: 63.1 µM [inhibitor, partial curve, poor fit]",
COc1ccc2cc(-c3ccsc3)ncc2c1,,inactive: -2.81%
CCN(CC)S(=O)(=O)c1ccc(NN=c2c(=O)c3ccccc3c2=O)cc1,"inconclusive: 35.5 µM [inhibitor, single point]",
COc1ccc2c(c1)C(=O)[C@@H](OC(=O)N[C@H]1CCCc3ccccc31)[C@H](c1ccc(OC)c(Br)c1)O2,,inactive: 4.77%
NC1=NN=C(N2N=C(c3ccccc3)CC2(O)C(F)(F)F)n2ncnc2C1 (configuration not stated),"inconclusive: 0.316 µM [inhibitor, partial curve, poor fit]",
CC(C)(C)c1ccc(O)c(N=Cc2cc3c(cc2[N+](=O)[O-])OCO3)c1,"inconclusive: 14.1 µM [inhibitor, partial curve, poor fit]",
CCCN(CCC)C(=O)Cn1c(=O)n(-c2cccc(C)c2)c(=O)c2c1c1cc(OC)ccc1n2C,,inactive: -17.9%
COc1ccc(-c2cc(C(=O)N3CCN(c4ccc(F)cc4)CC3)no2)cc1,"inconclusive: 89.1 µM [inhibitor, partial curve, poor fit]",
C=CCO/N=C/C1=C(O)C(C(=O)OC)C(C)(C)CC1=O (configuration not stated),"inconclusive: 50.1 µM [inhibitor, partial curve]",

Structure (SMILES),Potency,"max response, negative = inhibition"
CC(Sc1nc(C(C)(C)C)cc(-c2ccccc2)c1C#N)C(=O)Nc1ccccc1 (configuration not stated),"inconclusive: 89.1 µM [inhibitor, partial curve, poor fit]",
O=C(NCCc1ccccc1)N1c2ccccc2Sc2ccccc21,"inconclusive: 12.6 µM [inhibitor, partial curve, poor fit]",
O=C(NC12CC3CC(CC(C3)C1)C2)c1cc(F)c(F)cc1Cl,"inconclusive: 89.1 µM [inhibitor, single point]",
Cc1ccc2cc3c(N)c4c(C)ccc(C)c4nc3nc2c1,"inconclusive: 25.1 µM [inhibitor, partial curve]",
COc1ccccc1NC(=O)C1=C(C)Nc2nc(SC)nn2C1c1ccccc1Cl (configuration not stated),,inactive: -8.25%
Cc1ccnc(NS(=O)(=O)c2ccc(NC(=O)C3COc4ccccc4O3)cc2)n1 (configuration not stated),"inconclusive: 39.8 µM [inhibitor, single point]",
N#Cc1c[nH]n2c(NC3CCCCC3)c(-c3ccc(F)cc3)nc12,,inactive: 10.4%
O=C(CCN1CCN(C(=O)c2ccccc2)CC1)c1ccc(Br)cc1,"inconclusive: 15.8 µM [inhibitor, full curve, poor fit]",
Nc1ccc(S(=O)(=O)c2cc(O)c3ccccc3c2O)cc1,"inconclusive: 56.2 µM [inhibitor, partial curve, poor fit]",
CC(CCC(=O)Nc1nncs1)C(=O)O (configuration not stated),,inactive: -17.6%
CCCN(CCC)Cc1cc2ccccc2c2c1COC2,,inactive: 6.67%
NC(=O)c1nsc(C(=O)N(Cc2ccccc2Cl)C(C(=O)NCC2CCCO2)c2ccc(O)cc2)c1N (configuration not stated),,inactive: -20.1%
CCOC(=O)c1c(NC(=O)c2cc(-c3ccccc3OC)on2)sc(C)c1C,active: 79.4 µM,
COC(=O)C1=CN(c2ccc(OC)cc2)C=C(C(=O)OC)C1c1ccc([N+](=O)[O-])cc1,"inconclusive: 79.4 µM [inhibitor, partial curve, poor fit]",
O=C(CN1C(=O)COc2ccccc21)Nc1ccccc1F,"inconclusive: 100 µM [inhibitor, single point]",
COc1ccc(S(=O)(=O)Oc2c(OC)cc(C(=S)N3CCOCC3)cc2OC)cc1,"inconclusive: 89.1 µM [inhibitor, single point]",
N#C/C(=C\c1ccccc1[N+](=O)[O-])C(=O)NC1CCCCC1,"inconclusive: 56.2 µM [inhibitor, partial curve, poor fit]",
COC(=O)C1=C(C)NC(=S)NC1c1ccc(-c2ccccc2C(=O)OC)o1 (configuration not stated),"inconclusive: 89.1 µM [inhibitor, single point]",
COc1cc(N2C(=O)c3ccccc3C2=O)c(Cl)cc1C(=O)OCC(=O)N(C)C,"inconclusive: 89.1 µM [inhibitor, partial curve, poor fit]",
C=CCSC1=N/C(=C\c2ccc(C)o2)C(=O)S1,,inactive: -2.15%
Brc1ccc(NC2=Nc3ccccc3CC2)cc1,"inconclusive: 35.5 µM [inhibitor, single point]",
Cc1ccc(C(=O)Nc2cccnc2)cc1S(=O)(=O)N1CCCCC1,"inconclusive: 31.6 µM [inhibitor, single point]",
NC(CS)C(=O)O (configuration not stated),active: 44.7 µM,

Structure (SMILES),Potency,"max response, negative = inhibition"
Cc1ccc2nc(CN3CCN(C(=O)Nc4ccc(F)cc4)CC3)oc2c1,,inactive: 3.44%
Cc1ccc(CN2C(=O)C(O)(c3c(C)[nH]c4ccccc34)c3ccccc32)cc1 (configuration not stated),"inconclusive: 89.1 µM [inhibitor, single point]",
Cc1ccccc1NC(=S)Nc1ccc(Br)cc1,"inconclusive: 89.1 µM [inhibitor, single point]",
O=[N+]([O-])c1ccc(O)c(C2=NNC(c3ccccc3F)C2)c1 (configuration not stated),active: 79.4 µM,
COc1ccc2[nH]c3c(c2c1)CCNC3c1ccc([N+](=O)[O-])o1 (configuration not stated),"inconclusive: 89.1 µM [inhibitor, partial curve, poor fit]",
COc1ccc(NC(=O)CC2C(=O)N(c3ccccc3)C(=O)N2CCc2cccs2)cc1 (configuration not stated),,inactive: -6.76%
CCCCNC(=S)N(C)N=C1CCC(c2ccccc2)CC1 (configuration not stated),"inconclusive: 100 µM [inhibitor, single point]",
CCN(CC)CC#CCOC(=O)[C@@](O)(c1ccccc1)C1CCCCC1,,inactive: 1.54%
COc1ccc(/C=C/C(=O)CC(O)(c2ccccc2)C(F)(F)F)cc1 (configuration not stated),active: 35.5 µM,
O=C(c1csnn1)N1CCC[C@@]2(CCN(c3cccc(-c4ccccc4)c3)C2)C1,active: 44.7 µM,
CCC(C(=O)OCC(=O)NC(=O)c1ccccc1)c1ccccc1 (configuration not stated),,inactive: -13.5%
COc1cc(-c2nnc3sc(Cc4ccc(Cl)cc4)nn23)cc(OC)c1OC,"inconclusive: 89.1 µM [inhibitor, single point]",
Cc1cccc(N2C(=O)C(Cl)=C(N3CCOCC3)C2=O)c1,"inconclusive: 15.8 µM [inhibitor, full curve, poor fit]",
COC(=O)c1ccc(-c2nc(O)c(C)s2)cc1,active: 79.4 µM,
CN(C)CCCN(C(=O)CCOc1ccccc1)c1nc2ccc(F)cc2s1,"inconclusive: 56.2 µM [inhibitor, partial curve, poor fit]",
COc1ccc(Br)cc1/C=N/Nc1ccc(S(=O)(=O)Nc2ccccc2C(=O)O)cc1[N+](=O)[O-],active: 79.4 µM,
Cc1cccc(N2C(=O)C(Oc3ccc(Cl)cc3Cl)C2C=O)c1C (configuration not stated),"inconclusive: 89.1 µM [inhibitor, single point]",
Cc1ccccc1N(CC(=O)NCc1ccccc1)C(=O)CCC(=O)Nc1nccs1,,inactive: 2.6%
CC1=C(C(=O)c2ccccc2)C(c2cccc([N+](=O)[O-])c2)NC(=S)N1 (configuration not stated),"inconclusive: 89.1 µM [inhibitor, partial curve, poor fit]",
Cc1noc(C)c1-c1ccc2ncnc(NC3CCNCC3)c2c1,active: 44.7 µM,
O=C(O)c1ccc(/C=C/C(=O)c2ccc3c(c2)OCCCO3)cc1,"inconclusive: 56.2 µM [inhibitor, partial curve, poor fit]",

# Compounds shown so far that have a CF3 group:
Structure (SMILES),Potency,"max response, negative = inhibition"
NC1=NN=C(N2N=C(c3ccccc3)CC2(O)C(F)(F)F)n2ncnc2C1 (configuration not stated),"inconclusive: 0.316 µM [inhibitor, partial curve, poor fit]",
COc1ccc(/C=C/C(=O)CC(O)(c2ccccc2)C(F)(F)F)cc1 (configuration not stated),active: 35.5 µM,
